# Binding screen against folded nucleic acids

Targets (5′ to 3′):
T1: PreQ1 riboswitch RNA pseudoknot, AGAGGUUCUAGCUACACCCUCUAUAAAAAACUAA. From B. subtilis. About 24,000 compounds screened, about 170 hits.
T2: SAM-II riboswitch RNA pseudoknot, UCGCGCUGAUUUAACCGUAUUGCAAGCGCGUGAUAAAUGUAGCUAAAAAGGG. About 21,000 compounds screened, about 200 hits.
T3: TPP riboswitch RNA three-way junction, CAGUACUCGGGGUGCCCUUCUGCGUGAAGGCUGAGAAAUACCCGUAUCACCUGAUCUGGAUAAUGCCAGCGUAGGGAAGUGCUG. About 24,000 compounds screened, about 160 hits.

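Compounds were printed on reactive glass slides in duplicate spots, a dye-labelled oligonucleotide was laid over them, and the fluorescence left after washing was read. The data file lists only calls. An earlier report of the laboratory on the PreQ1, TPP and SAM-II riboswitches (doi:10.1038/s41467-019-09493-3) used 1 µM RNA for 2 h and required a mean Z-score above 3 (spot signal-to-noise against the whole library), a score well above that on a control array, and duplicate spots agreeing (coefficient of variation under 100); it then also set aside compounds that hit other targets, which this list keeps. The cut-offs behind this list may differ. The calls come from the array alone, and fixing a compound to the slide can hide its binding.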
A compound is marked 1 if it was called a hit and 0 if it was screened but was not.
The compounds are a random part of those screened.
A dash means that no call is listed here.

Compound,T1,T2,T3
COc1cc(CNc2nc3cc(C)ccc3cc2-c2noc(C)n2)cc(OC)c1,0,-,0
O=C1CC(Nc2ccc(Oc3ccccc3)cc2)C(=O)N1c1ccc(F)cc1 (stereo not shown),0,0,0
Cc1ccccc1NC(=O)CNC(=O)[C@@H]1C[C@@H](NC(=O)c2cccs2)CN1,0,0,0
O=C(CC(Nc1ccc2ccccc2c1)c1ccccc1)c1ccccc1 (stereo not shown),0,0,0
CCOC(=O)CSc1nc(=O)cc(N)n1-c1ccc(F)cc1,0,0,0
Cc1c(NC(=O)OC[C@@H]2COCCN2)cn2ncnc(Nc3ccc4c(cnn4Cc4cccc(F)c4)c3)c12,0,0,0
Cc1ccccc1-c1ncc(CN(C)CC2(CO)CCOCC2)s1,0,0,0
O=C(N[C@H]1CC[C@H]1NC1CCCCCC1)c1ccccc1N1CCOCC1,0,0,0
CCOC(=O)C1=C(N)OC(C)=C(C(=O)OC(C)(C)C)C12C(=O)Nc1ccccc12 (stereo not shown),0,0,0
FC(F)(F)c1cccc(Nc2nc(-c3cccnc3)cs2)c1,0,0,0
Cc1c(S(=O)(=O)c2ccc(Cl)cc2)c(N)n(CCCN(C)C)c1C,0,0,0
COc1ccccc1CNCc1cccc(OC)c1OC,0,0,0
Nc1ncnc2c1C(c1ccc(Cl)cc1)c1c(ccc3ccccc13)O2 (stereo not shown),0,0,0
OCCCc1nc2ccccc2n1CCCOc1cccc2ccccc12,0,0,0
C=CCn1cc(CNCc2cnn(Cc3ccccc3)c2)c(C)n1,0,0,0
Nc1ccc2sc(-c3ccccc3O)nc2c1,0,0,0
CC1CNc2c(cccc2S(=O)(=O)N[C@@H](CCCN=C(N)N)C(=O)N2CC[C@@H](C)C[C@@H]2C(=O)O)C1 (stereo partly shown),0,0,0
CNC[C@H](O)c1cccc(O)c1,0,0,0
Cc1ccc(C2(CCNCCN3CCOCC3)CCOC(C)(C)C2)cc1 (stereo not shown),0,-,1
CCCCCOCC1CC2(CC(C)(c3csc(Nc4ccccc4)n3)OC2=O)C(=O)O1 (stereo not shown),0,0,0
Cl.OCCNCCNCC1CCCCC1,0,0,0
COc1ccccc1C1C(C#N)=C(N)OC2=C1S(=O)(=O)N(Cc1cccc(C)c1)c1ccccc12 (stereo not shown),0,-,0
CCOc1cc(CO)cc(Br)c1OCc1ccc(C(=O)O)cc1,0,0,0
CN1C(=O)C[C@H](C(=O)N[C@@H](Cc2cnc[nH]2)C(=O)N2CCC[C@@H]2C(N)=O)NC1=O,0,0,0
C=C[C@@H]1CN2CCC1C[C@@H]2C(O)c1ccnc2ccc(OC)cc12 (stereo partly shown),0,0,0
Cl.Cl.c1cn(CCCNCc2ccc3c(c2)OCO3)cn1,0,0,0
CC(NCCC(c1ccc(F)cc1)c1ccco1)c1ccccc1 (stereo not shown),0,0,0
CC1CCN(c2ccc(C(F)(F)F)cc2N)CC1,0,0,0
Cc1ccc2cc(-c3noc(C)n3)c(NC(C)c3ccccc3)nc2c1 (stereo not shown),0,-,0
CCCC(=O)N(C)C1=Nc2ccc(Cl)cc2C(c2ccccc2)=[N+]([O-])C1,0,0,0
COc1ccccc1C1C(C#N)=C(N)OC2=C1S(=O)(=O)N(Cc1ccccc1)c1ccccc12 (stereo not shown),0,-,0
CCCS(=O)(=O)Nc1ccc(F)c(C(=O)c2c[nH]c3ncc(-c4ccc(Cl)cc4)cc23)c1F,0,0,0
Nc1ccccc1C(=O)NCc1ccccn1,0,0,0
Nc1ncccc1CN1CCC2(CC1)CC(=O)N(Cc1cc(F)cc(F)c1)C2,0,0,0
COc1ccc(CCCC(=O)NCc2cc3n(n2)CCCNC3)cc1,0,0,0
COc1ccc(CCNCC(=O)Nc2cccc(C)c2C)cc1,0,0,0
CCCCNc1oc(-c2ccc(S(=O)(=O)N(C)C)cc2)nc1C#N,0,-,0
COc1ccccc1N1CCN(C(=O)[C@@H](N)Cc2ccccc2)CC1=O,0,0,0
CNC(=O)c1ccc(C)c(-n2ccnc2-c2cccc(OCCO)c2)c1,0,0,0
CCOC(=O)CSc1nc(N)nc(C)c1Br,0,0,0
Nc1cccc(-c2nnn(CCCC(=O)O)n2)c1,0,0,0
C=CCn1c(=N)n(CC(O)c2ccc(OCC)cc2)c2ccccc21 (stereo not shown),0,0,0
Brc1ccc(Nc2c(-c3ccc4c(c3)OCO4)nc3cnccn23)cc1,0,-,0
COc1ccc(CN2CCCC2)cc1Oc1ccc(CO)cc1,0,0,0
Nc1ccc(-c2cn[nH]c2)cc1,1,0,0
CS(=O)(=O)Nc1nc2ccccc2[nH]1,0,0,0
C=C(C)COc1cccc(CNCC(C)Oc2cccnc2)c1 (stereo not shown),0,0,0
Cc1ccccc1-c1noc(-c2cccnc2NCCc2ccccc2)n1,0,-,0
Cc1ccc(Cl)cc1NC(=O)N1CCC(C(O)c2nccn2C)CC1 (stereo not shown),0,0,0
CCc1c(C(=O)N2C[C@H](N)C[C@H]2C(=O)NC(C)C)csc1C,0,0,0
CNc1oc(-c2ccc(S(=O)(=O)N3CCOCC3)cc2)nc1C#N,0,-,0
COc1cccc(CNc2nc3nc(C)cc(C)n3n2)c1,0,-,0
Nc1nc(N)c2nc(CNc3ccc(C(=O)NC(CCC(=O)O)C(=O)O)cc3)cnc2n1 (stereo not shown),0,0,0
Cc1cc(C)cc(N2CC(=O)C(c3nc4ccccc4s3)=C2N)c1,0,0,0
Cn1c2ccccc2c2cc(C3Nc4ccccc4C(=O)N3Cc3ccccc3)ccc21 (stereo not shown),0,0,0
COc1ccc2c(CNCc3cccc(Br)c3)c(C(=O)O)n(C)c2c1,0,-,0
Cc1ccc(Cl)cc1NC1c2ncccc2C(=O)N1Cc1cccs1 (stereo not shown),0,0,0
CCOc1cccc(-c2cnnn2-c2nonc2N)c1,0,0,0
COc1ccc(-c2ccc3cc(C(=O)O)ccc3c2)cc1C12CC3CC(CC(C3)C1)C2,0,0,0
COC(=O)CN1C(=O)C2(C(C(=O)OC)=C(N)Oc3[nH]nc(C)c32)c2ccccc21 (stereo not shown),0,0,0
COCc1nn2c(N)c(-c3ccc(Cl)cc3)cnc2c1-c1ccccc1,0,0,0
CC1(C)CC(=O)C=C(Nc2ccc(C(=O)O)c(O)c2)C1,0,0,0
CCC(Nc1cc(C(C)C)nc(N)n1)c1cn2cccnc2n1 (stereo not shown),0,0,0
CCOC(=O)c1cnc2ccccc2c1Nc1ccc(Cl)cc1,0,0,0
Cc1cccc(OCC(=O)N2C[C@@H](CN3CCOCC3)[C@@H](CO)C2)c1,0,0,0
Cc1nc2c(c(N(C)C)n1)CCN(C(=O)[C@@H](N)Cc1c[nH]c3ccccc13)C2,0,0,0
O=C(Nc1ccc(F)c(Cl)c1)c1nccnc1CO,0,0,0
CC[n+]1ccc(C2C(C#N)=C(N)OC(C)=C2C(=O)[O-])cc1 (stereo not shown),0,0,0
CN(C)CCCN1c2ccccc2CCc2ccc(Cl)cc21,0,0,0

Some entries from above, unchanged:

| Compound | T1 | T2 | T3 |
|---|---|---|---|
| `C=C[C@@H]1CN2CCC1C[C@@H]2C(O)c1ccnc2ccc(OC)cc12` (stereo partly shown) | 0 | 0 | 0 |
| `Cc1c(NC(=O)OC[C@@H]2COCCN2)cn2ncnc(Nc3ccc4c(cnn4Cc4cccc(F)c4)c3)c12` | 0 | 0 | 0 |
| `CCC(Nc1cc(C(C)C)nc(N)n1)c1cn2cccnc2n1` (stereo not shown) | 0 | 0 | 0 |
| `Nc1ccc(-c2cn[nH]c2)cc1` | 1 | 0 | 0 |
| `Cc1ccc(Cl)cc1NC1c2ncccc2C(=O)N1Cc1cccs1` (stereo not shown) | 0 | 0 | 0 |
| `COc1ccc(-c2ccc3cc(C(=O)O)ccc3c2)cc1C12CC3CC(CC(C3)C1)C2` | 0 | 0 | 0 |
| `Nc1ncnc2c1C(c1ccc(Cl)cc1)c1c(ccc3ccccc13)O2` (stereo not shown) | 0 | 0 | 0 |

Data from the ROBIN nucleic acid binder screens, doi:10.1002/anie.202211358.